Experimental data taken from article PMC10163288.
The other results are listed elsewhere or left out.

B1: il2ra_site2_2erj_normal_mot_ems_p1-14H-GABBL-16H-GABBL-15H_0014_0001_0001_0001_000000124_0001_40_55_H_._HEEHE_0157_0001_0000100001_0000001_1 (protein)
chain: SDERMFARFLRLNAEHAGVPHVEVEVSNGEVTVTVNGTDEIAELFAHQVEESAKQQGIKVEVEIE
B2: il2ra_site2_3nfp_sap_15_mot_HHH_b1_03316_000000041_0001_39_56_H_._HHH_b1_04942_0001_0000100001_0000001_0_0001_af2pred_0001_af2pred_1_swapped (protein)
chain: SSSSNKEELRILAENAVKAAKELNNDEDARALLLVLLERAEELGNEEVQEFIEELQEEINSSSSS
B3: il2ra_site1_2b5i_sap_17_mot_143f78fc0439b137266e145e81963a82_0001_1_af2_000000250_0001_37_51_H_._2548690152cc24afdf538b66510d0e06_0001_0001_0000200012_0000001_0 … (protein)
chain: SSSSDEKYDEVERLFKKALELRRAGKKEEAKEVLEEALKIAEEAKDEKLVEELKRFLELLSSSSS
B4: il2ra_site2_2erj_sap_18_mot_66c2fca85847babee3b8944584cfd08f_0001_1_000000223_0001_16_30_H_._HEEHE_2538_0001_0000200008_0000001_0_0001 (protein)
chain: YEFLHILMQVLAAIPDPEESHELLEELHELAAEGDKKEAIELALRVAEELGNPELAKELEKLLEP
B5: il2ra_site1_2b5i_normal_mot_HHH_b2_01594_000000003_0001_41_55_H_._HHH_b1_06536_0001_0000100004_0000001_0_af2pred_dldesign_0_af2pred (protein)
chain: SSSSPEFKELYEKTLELLEEGRLEEARKLLDELDDLAKEADDPEALKKVNELIKRLYRVEKSSSS
B6: il2ra_site1_1z92_sap_19_mot_01209686ea234b34325f918445e6eade_0001_af2_000000144_0001_18_33_H_._8eb524b276bbb897fd8f0cca34c37a2d_0001_0001_0000100003_0000001_0_0 … (protein)
chain: SSSSDELFERLDELWEEAQEAKKRGNPEEAKELLEEAIKIAEELGDEHLLRQLEQALRLVRSSSS
B7: il2ra_site1_1z92_normal_mot_54e474eed2d0515e81978198f0f96ec2_0001_000000202_0001_15_30_H_._15f70e71ac3214bf43105af5abf4654e_0001_1_af2_0001_0000200012_0000001_0 … (protein)
chain: DEEAARKDLQRALELGIPPRSVVLAVLRALERDLGDPEEALEVIERAIELLNDPELREVVEKLKP
B8: il2ra_site2_2erj_sap_22_mot_6c2800a769814540b5b47941e710ff28_0001_000000197_0001_35_49_H_._HHH_b1_06288_0001_0000500025_0000001_0_0001 (protein)
chain: SSSSDEEAHKVNELLRQVMRLFREGNPEEAREVLEEARELAEENNDEELREAVELFKEYLSSSSS
B9: il2ra_site2_3nfp_normal_mot_HHH_b1_05627_af2_000000038_0001_43_56_H_._HHH_b2_04370_af2_0001_0000300006_0000001_0 (protein)
chain: SSSSDKAEEYLRIARELIKEAVEAGDEEAARKQLEAAIAAAEALGDEEALEELQEILEKLSSSSS
B10: il2ra_site1_2b5i_sap_13_mot_HHH_b2_00256_000000050_0001_19_35_H_._HHH_b2_06740_0001_0000200023_0000001_0_0001_af2pred_dldesign_0_af2pred (protein)
chain: SKLAEELRYLIERNPKHFVRLVKREALNAGMPEEEVEKLAKELERLLAEGKYDEAIELAVEVISK
B11: il2ra_site2_2erj_normal_mot_HHH_b2_01353_af2_000000049_0001_23_39_H_._ems_3hC_1310_0001_0001_0000300011_0000001_0 (protein)
chain: DEVEELLRLLREASILAFERRDFEAFHLLAEAAKLLAEAQAKRDEELKEEANKYAQRVIEEAESS
B12: il2ra_site1_2b5i_normal_mot_HHH_b1_02271_000000068_0001_1_16_H_._HHH_b2_07355_af2_0001_0000400020_0000001_0 (protein)
chain: SSSSSTRLELMRELDELIKELAEEGDEETDEEVYELAIEASKKRDPELLKEAIELAKRVLSSSSS
B13: il2ra_site2_2erj_sap_18_mot_b5c6f2848cbf55e1ecbd417c35b42da7_0001_af2_000000155_0001_1_14_H_._2bb8f7c4b7b4379f71127615d49396b2_0001_0001_0000200008_0000001_0_00 … (protein)
chain: SSSSSHEEEVRELLEEAKEAFKRGDLHLVYELLVRALHVAAKHQDQELQEEIAEFFERLQSSSSS
B14: il2ra_site1_2b5i_normal_mot_f5ff40796168375b462bec8614a1db4a_0001_1_000000138_0001_53_65_H_._HHH_b1_03868_0001_0000300029_0000001_0_af2pred_dldesign_0_af2pred (protein)
chain: SSSSSSEDYRELVEELIEEAKKEKDPLLRKKLLTLARRVAKKAKDEELIKKVEEVEEEIKSSSSS
B15: il2ra_site2_3nfp_normal_mot_HHH_b2_05281_000000198_0001_39_56_H_._HHH_b1_05218_0001_0000200017_0000001_0 (protein)
chain: SSSSDEERVEELLREVEELLKRGNPEEAQKALQEATHIAYENRNSELFFKIAEYAFALVQSSSSS
B16: il2ra_site2_3nfp_sap_20_mot_HHH_b1_00487_000000023_0001_40_53_H_._c404ac47ecb0312e2f7dfd42d7b7c6cf_0001_af2_0001_0000300012_0000001_0_0001_af2pred_0001_af2pred (protein)
chain: SSSSSDEEHQKFIVRAELYAAKVQPDPRLREEALELARRSAEAHNDEELKELVEEVAEELSSSSS
B17: il2ra_site1_2b5i_normal_mot_HHH_b2_00256_000000050_0001_19_35_H_._HHH_b2_00953_af2_0001_0000200020_0000001_0_af2pred_dldesign_0_af2pred (protein)
chain: SSSSSDLERFAAELLYKAKATLKLTPEQFKELEKLVIALLEQGKSEEELKKELEEFAAKVSSSSS
B18: il2ra_site1_1z92_normal_mot_HHH_b2_00385_000000257_0001_1_19_H_._HHH_b1_07316_0001_0000400043_0000001_0 (protein)
chain: SSSSSWQEEILRSLIRSLERLAEEGNEKALEKLLEFLEIAAKENNDEEAERFVEKLKEELSSSSS
B19: il2ra_site2_2erj_normal_mot_HHH_b1_07806_000000211_0001_42_56_H_._HHH_b1_01569_0001_0000200016_0000001_0 (protein)
chain: SSSSDWLERLYELAELIDRLRANGNPEEAREVLEELEELAEETDSENAKEVAEFLEKQLNSSSSS
B20: il2ra_site1_3nfp_sap_15_mot_HHH_b1_07180_af2_000000260_0001_1_19_H_._HHH_b2_06750_af2_0001_0004600089_0000001_0_0001_af2pred_0001_af2pred_1_swapped (protein)
chain: SSSSSSSAEELLRRAQEAARNGNPEEAREVLEEALELAEENGNKALRKFVESLLRVLESSSSSSS
B21: il2ra_site1_2b5i_normal_mot_ems_3hM_3687_af2_000000248_0001_45_64_H_._HHH_b2_05772_af2_0001_0000200011_0000001_0_af2pred_dldesign_0_af2pred (protein)
chain: SSSSSPELEALAKKAIEEADKAKEAGDRRKALEILEEAHKKLAAADDEELADLMHEKALELSSSS
B22: il2ra_site2_3nfp_normal_mot_HHH_b2_04451_000000238_0001_21_37_H_._HHH_b2_06904_0001_0000300014_0000001_0 (protein)
chain: SSSSSSDEEEIEELLELVEKIDDQLERLQVLLEASKLAAELGDEELAREVLRLFAEIQSSSSSSS
B23: il2ra_site1_1z92_normal_mot_HHH_b2_04090_000000052_0001_1_16_H_._HHH_b2_00407_0001_0000200011_0000001_0_af2pred_0001_af2pred (protein)
chain: SSSSSALELQLEFLLEQIERAIKLGNPRSARRALEMARELAELQNDEEVEEKLEELERLVNSSSS
B24: il2ra_site2_3nfp_sap_24_mot_HHH_b2_03377_000000137_0001_25_41_H_._HHH_b2_02614_0001_0000100004_0000001_0_0001 (protein)
chain: SSSSDVSEEYLKAALALLELAVEEGDKEQFERILETVRAAAEANNDEEVRERLEELEELIKSSSS

target: il2ra, P01589; experiment: yeast display titration

Apparent Kd, inactive:
B1 no binding seen
B2 no binding seen
B3 no binding seen
B4 no binding seen
B5 no binding seen
B6 no binding seen
B7 no binding seen
B8 no binding seen
B9 no binding seen
B10 no binding seen
B11 no binding seen
B12 no binding seen
B13 no binding seen
B14 no binding seen
B15 no binding seen
B16 no binding seen
B17 no binding seen
B18 > 6.35 µM
B19 no binding seen
B20 no binding seen
B21 no binding seen
B22 no binding seen
B23 no binding seen
B24 no binding seen

Quoted from the results shown for reference:
Apparent Kd, inactive:
B5 no binding seen
B6 no binding seen
